Reference: PubChem BioAssay AID1259424 (University of Nebraska Medical Center, 2018)
Purpose: 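Rank knockdowns across the genome by resemblance to the KSR1 depletion profile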 (primary screen). Cells: human HCT116 colon cancer cells. Reagent: siRNA pool against human genes, 50 nM. Measured: 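Log2 levels of six mRNAs (branched-DNA multiplex), adjusted by two reference genes and the non-targeting median, then scored against the average KSR1 knockdown pattern as Pearson r and euclidean distance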. Scale: mean correlation with KSR1 profile: higher = expression change more like KSR1 knockdown; mean distance from KSR1 profile: higher = expression change less like KSR1 knockdown.
The whole screen tested about 14,000 reagents; this is an unselected part. 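Higher correlation or smaller distance means closer resemblance to KSR1 loss; control wells, including KSR1 knockdowns, recur on many plates.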 Further read-outs or replicates are left out here. Not stated in the record: the time to read-out.

TMEM38A [SID364002727] gave mean correlation with KSR1 profile -0.782; mean distance from KSR1 profile 2.48. GPR62 [SID364004507] scored mean correlation with KSR1 profile 0.153; mean distance from KSR1 profile 2.37. After knock-down of ARNT2 [SID363999152] the results were mean correlation with KSR1 profile -0.0779; mean distance from KSR1 profile 1.85. With knock-down of APOE [SID363991380], the screen gave mean correlation with KSR1 profile -0.328; mean distance from KSR1 profile 1.49. GASK1B [SID364000237] showed mean correlation with KSR1 profile 0.364; mean distance from KSR1 profile 1.6. Against CLRN1 [SID364004426], the values are mean correlation with KSR1 profile -0.0497; mean distance from KSR1 profile 2.6.

After knock-down of LRP1 [SID363993517], the record shows mean correlation with KSR1 profile -0.136; mean distance from KSR1 profile 2.84. With knock-down of DEFA1 [SID363995094], the screen gave mean correlation with KSR1 profile 0.195; mean distance from KSR1 profile 1.97. After knock-down of GHSR [SID363995132], the screen gave mean correlation with KSR1 profile 0.394; mean distance from KSR1 profile 2.95. Silencing of NXN [SID364002449] came out at: mean correlation with KSR1 profile 0.124; mean distance from KSR1 profile 1.46. Knock-down of INTS11 [SID364000601] gave: mean correlation with KSR1 profile -0.369; mean distance from KSR1 profile 2. For ZNF777 [SID363999653], the values are mean correlation with KSR1 profile -0.0235; mean distance from KSR1 profile 2.64.

Silencing of WNT8B [SID363994505] resulted in: mean correlation with KSR1 profile -0.124; mean distance from KSR1 profile 2.2. After knock-down of PHF12 [SID364001883], the record shows mean correlation with KSR1 profile 0.0746; mean distance from KSR1 profile 2.89. Against CRISPLD2 [SID364003656], the entry reads mean correlation with KSR1 profile 0.346; mean distance from KSR1 profile 2.2. After knock-down of ZNF227 [SID364004956], the screen gave mean correlation with KSR1 profile -0.378; mean distance from KSR1 profile 1.51. With knock-down of SEMA3C [SID363997194], the screen gave mean correlation with KSR1 profile -0.563; mean distance from KSR1 profile 2.06. Knock-down of VIPR1 [SID363995592] came out at: mean correlation with KSR1 profile 0.686; mean distance from KSR1 profile 1.18.

Knock-down of TULP3 [SID363994440] came out at: mean correlation with KSR1 profile -0.413; mean distance from KSR1 profile 1.95. NTN1 [SID363995775] showed mean correlation with KSR1 profile -0.00104; mean distance from KSR1 profile 1.14. Knock-down of FSTL3 [SID363996734] came out at: mean correlation with KSR1 profile -0.0494; mean distance from KSR1 profile 4.37. Knock-down of PEAK1 [SID364005419] resulted in: mean correlation with KSR1 profile 0.596; mean distance from KSR1 profile 2.21. GET3 [SID363995307] gave mean correlation with KSR1 profile 0.292; mean distance from KSR1 profile 1.48. With knock-down of DUOX1 [SID364000312], the screen gave mean correlation with KSR1 profile -0.504; mean distance from KSR1 profile 6.75.

Silencing of GNL2 [SID363998408] resulted in: mean correlation with KSR1 profile 0.273; mean distance from KSR1 profile 4.96. Knock-down of AUTS2 [SID363999579] came out at: mean correlation with KSR1 profile 0.586; mean distance from KSR1 profile 1.26. Against LRRC37A [SID363999133] the deposit lists mean correlation with KSR1 profile 0.00665; mean distance from KSR1 profile 2.6. Silencing of GART [SID363992108] resulted in: mean correlation with KSR1 profile -0.0443; mean distance from KSR1 profile 2.98.

2 consecutive reagents from above, for reference:
SEMA3C [SID363997194] — mean correlation with KSR1 profile = -0.563; mean distance from KSR1 profile = 2.06
VIPR1 [SID363995592] — mean correlation with KSR1 profile = 0.686; mean distance from KSR1 profile = 1.18
